Reference: patent US7569724B2, “Carbamic acid compounds comprising an amide linkage as HDAC inhibitors” (Topotarget UK Limited, priority 2000, dated 2009)

How the values were obtained:
[1] = system: NHEK-Ad primary human adult keratinocyte line; experiment: Secondary assay: cell proliferation WST-1, NHEK-Ad; format: cell-based; settings: 48 h, read-out: Cell Proliferation Inhibition WST-1 (IC50 unless otherwise specified) NHEK-AD
Experimental: (§1) Compounds with HDAC inhibition activity, as determined using the primary assay, were subsequently evaluated using secondary cell-based assays. The following cell lines were used:
NHEK-Ad—Primary human adult keratinocyte line (Cambrex Corp., East Rutherford, N.J., USA).
(§2) Cells were plated in 96-well plates at 3-10×10^3 cells/well in 100 μL of culture medium. The following day, different concentrations of candidate compounds were added and the cells incubated at 37° C. for 48 h. Subsequently, 10 μL/well of WST-1 reagent was added and the cells reincubated for 1 hour. After the incubation time, absorbance was measured.
WST-1 is a tetrazolium salt which is cleaved to formazan dye by cellular enzymes. An expansion in the number of viable cells results in an increase in the overall activity of mitochondrial dehydrogenases in the sample. […] The formazan dye produced is quantified by a scanning multiwell spectrophotometer by measuring the absorbance of the dye solution at 450 nm wavelength (reference wavelength 690 nm).
(§3) Percent activity (% activity) in reducing the number of viable cells was calculated for each test compound as: % activity={(S^C−B)/(S^o−B)}×100 wherein S^C denotes signal measured in the presence of the compound being tested, S^o denotes signal measured in the absence of the compound being tested, and B denotes the background signal measured in blank wells containing medium only. […]

[2] = system: K11 HPV E7 transformed human keratinocyte line; experiment: Secondary assay: cell proliferation WST-1, K11; format: cell-based; settings: 48 h, read-out: Cell Proliferation Inhibition WST-1 (IC50 unless otherwise specified) K11
Experimental: as §1
K11—HPV E7 transformed human keratinocyte line provided by Pidder Jansen-Duerr, Institut für Biomedizinische Alternsforschung, Innsbruck, Austria.
as §2
WST-1 is a tetrazolium salt which is cleaved to formazan dye by cellular enzymes. […] The formazan dye produced is quantified by a scanning multiwell spectrophotometer by measuring the absorbance of the dye solution at 450 nm wavelength (reference wavelength 690 nm).
as §3

## O=C(CCCCCCC(=O)Nc1ccccc1)NO [SAHA, Suberoylanilide Hydroxamic Acid, reference compound]
[1]
  IC50: 5.3 µM
[2]
  IC50: 6.82 µM
